# Publication PMC3271075
# The chains behind the UniProt entries cited, without tags or fusion partners.
# UniProt Q06A28: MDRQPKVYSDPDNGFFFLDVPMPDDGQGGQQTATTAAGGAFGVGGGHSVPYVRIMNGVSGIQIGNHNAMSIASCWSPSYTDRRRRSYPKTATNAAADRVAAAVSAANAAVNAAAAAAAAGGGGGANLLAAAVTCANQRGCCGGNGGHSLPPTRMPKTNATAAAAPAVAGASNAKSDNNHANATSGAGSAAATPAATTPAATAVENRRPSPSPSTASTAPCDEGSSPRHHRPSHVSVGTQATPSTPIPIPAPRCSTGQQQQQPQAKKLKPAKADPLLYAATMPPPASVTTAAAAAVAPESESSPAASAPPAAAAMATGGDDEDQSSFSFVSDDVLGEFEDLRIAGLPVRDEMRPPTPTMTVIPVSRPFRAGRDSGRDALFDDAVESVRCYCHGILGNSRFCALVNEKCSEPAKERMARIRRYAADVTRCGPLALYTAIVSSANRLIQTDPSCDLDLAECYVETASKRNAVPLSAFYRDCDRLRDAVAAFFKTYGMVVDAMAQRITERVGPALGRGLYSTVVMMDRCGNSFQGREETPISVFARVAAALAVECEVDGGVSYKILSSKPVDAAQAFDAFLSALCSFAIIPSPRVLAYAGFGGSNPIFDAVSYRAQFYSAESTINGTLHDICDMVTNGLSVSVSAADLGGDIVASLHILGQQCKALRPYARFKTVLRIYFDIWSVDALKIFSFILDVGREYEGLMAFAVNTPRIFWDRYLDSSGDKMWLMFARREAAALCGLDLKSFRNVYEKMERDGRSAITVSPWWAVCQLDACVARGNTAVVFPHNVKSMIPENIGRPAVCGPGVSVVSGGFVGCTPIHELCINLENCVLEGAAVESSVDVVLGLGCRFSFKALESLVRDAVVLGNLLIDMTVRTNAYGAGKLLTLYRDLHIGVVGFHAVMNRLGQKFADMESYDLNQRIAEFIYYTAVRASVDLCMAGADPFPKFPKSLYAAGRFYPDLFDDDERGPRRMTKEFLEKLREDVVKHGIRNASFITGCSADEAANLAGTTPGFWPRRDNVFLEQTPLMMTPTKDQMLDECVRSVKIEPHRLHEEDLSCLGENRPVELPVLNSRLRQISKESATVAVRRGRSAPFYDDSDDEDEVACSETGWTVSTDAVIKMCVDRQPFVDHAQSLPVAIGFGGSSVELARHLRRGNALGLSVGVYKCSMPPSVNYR
# UniProt Q9Y6K9: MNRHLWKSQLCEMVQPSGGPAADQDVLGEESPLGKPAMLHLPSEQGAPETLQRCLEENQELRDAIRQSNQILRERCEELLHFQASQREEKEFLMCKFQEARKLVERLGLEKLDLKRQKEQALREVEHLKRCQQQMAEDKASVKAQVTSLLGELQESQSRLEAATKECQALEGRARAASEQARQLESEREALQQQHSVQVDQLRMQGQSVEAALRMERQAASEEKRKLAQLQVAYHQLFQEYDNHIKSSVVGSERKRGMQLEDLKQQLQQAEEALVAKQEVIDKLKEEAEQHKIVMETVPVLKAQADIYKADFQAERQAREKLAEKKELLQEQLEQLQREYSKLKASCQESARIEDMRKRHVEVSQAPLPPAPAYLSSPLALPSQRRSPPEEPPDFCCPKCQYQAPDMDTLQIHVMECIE
# UniProt O88522: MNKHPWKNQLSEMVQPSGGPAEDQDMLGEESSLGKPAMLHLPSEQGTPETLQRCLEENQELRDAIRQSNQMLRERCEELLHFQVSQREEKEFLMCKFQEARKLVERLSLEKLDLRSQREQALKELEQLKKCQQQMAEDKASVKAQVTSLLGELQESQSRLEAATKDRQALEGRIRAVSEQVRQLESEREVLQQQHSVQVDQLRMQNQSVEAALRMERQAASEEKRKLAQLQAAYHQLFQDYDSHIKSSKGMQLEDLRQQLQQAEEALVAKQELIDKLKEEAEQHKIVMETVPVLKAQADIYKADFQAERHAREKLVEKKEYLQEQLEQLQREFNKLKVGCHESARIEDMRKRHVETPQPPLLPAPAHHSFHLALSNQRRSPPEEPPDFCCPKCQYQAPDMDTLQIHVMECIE
# Results are given in words; binding and its absence hold for the method and conditions named. In cells and extracts the contact can be indirect. Some binding calls cover weakened binding; strength is not graded here.
# Legend:
# [1] = target: HA-tagged M45 (murine cytomegalovirus M45 protein, full length, from pcDNA-M45-HA) (murine cytomegalovirus) (UniProt Q06A28); assay: co-IP; 293A cells co-transfected with HA-tagged M45 (full length or truncated) and Flag-tagged IKK subunits; IP anti-HA, immunoblot anti-Flag; lysis in 50 mM Tris-HCl pH 7.5, 150 mM NaCl, 1% Nonidet P-40
# [2] = target: HA-tagged M45 (murine cytomegalovirus M45 protein, full length, from pcDNA-M45-HA) (murine cytomegalovirus) (UniProt Q06A28); assay: co-IP; rip1-/- MEFs transfected with HA-tagged M45 and Flag-tagged NEMO; IP anti-HA
# [3] = target: HA-tagged M45 (murine cytomegalovirus M45 protein, full length, from pcDNA-M45-HA) (murine cytomegalovirus) (UniProt Q06A28); assay: co-IP; 293A cells transfected with HA-tagged M45 or m143; IP anti-HA, immunoblot for endogenous NEMO, IKKα and IKKβ
# [4] = target: HA-tagged M45 expressed by the MCMV revertant virus RM45 (murine cytomegalovirus) (UniProt Q06A28); assay: co-IP; NIH-3T3 cells infected for 4 hours with RM45 (MCMV expressing HA-tagged M45) at an MOI of 5; IP of lysates and immunoblot for the IKK subunits
substance,measurement,setting,value
Flag-tagged NEMO (from pCMVTAG-NEMO) (from UniProt Q9Y6K9 1-419),binding,[1],binds
same,binding,[2],binds
endogenous NEMO of 293A cells (from UniProt Q9Y6K9 1-419),binding,[3],binds
endogenous NEMO of NIH-3T3 cells (from UniProt O88522 1-412),binding,[4],binds
